Measurements from “University of Dundee, Small-Polar-MMV Screening Library” (2021), ChEMBL document CHEMBL3988442.

Each number is a percent effect as filed.
The record does not define 0% and 100%; most values in the screen are far below 50% and negative numbers occur (in some assays of this library far below -100).
Compounds were drawn at random from those tested, without regard to their results.
Two or more numbers in one place are separate tests of the same structure; such repeats can differ widely.

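Phenotypic screen: M. tuberculosis growth, cholesterol and DPPC medium, 4 days; the read-out is not stated. Tested at 50 µM. Direction is inferred from retests: higher values go with more growth inhibition. Size under these conditions: about 69,000 compounds, about 370 of them at 50% or above in at least one test.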

compound,effect
CNc1nc(N2CCN(CC=C(C)C)C(CCO)C2)nc2c1CCC2 (stereo not given),-6.907
C[C@@H](O)CNc1c(NCc2ccco2)c(=O)c1=O,13.41
CC(O)CN1CCN(Cc2nnc(C3CC3)o2)CC1 (stereo not given),-14.23
O=C(O)C(F)(F)F.O=C1CC[C@]2(CC[C@@H](NCc3ccoc3)CC2)N1,6.639
[H][C@]12CC[C@]([H])(CN(C3CCOCC3)C1)N(Cc1cnc(SC)nc1)C2,0.561
O=C(NCC1CC1)C1CCC2(CN(C(=O)c3ccno3)C2)O1 (stereo not given),21.63
CCn1c(C2CCN(C(=O)c3cc(C4CC4)on3)CC2)nn(C)c1=O,-9.642
Cc1cnc(CNc2c(F)cccc2-n2cccn2)o1,-29.8
CCCS(=O)(=O)N1CCC2(CC1)COCCN(C(C)=O)C2,11.28
COCc1n[nH]c2c1CN(Cc1cccs1)C2.O=C(O)C(F)(F)F,5.776
Cc1ccccc1-n1ccc2nc(N3CCCC3)ncc2c1=O,11.33 & -9.084
COc1c(CNCc2ccc(CN(C)C)cc2)c(C)nn1C,-6.381
O=S(=O)(Nc1cnc(N2CCCC2)nc1)c1ccc(OC(F)(F)F)cc1,-14.59
CC(NCc1c(C(C)C)nn(C)c1N(C)C)C(=O)NC1CCCC1.Cl (stereo not given),2.568
CS(=O)(=O)N1CCOCC2(CN(Cc3ccco3)CCO2)C1.O=C(O)C(F)(F)F (stereo not given),-14.04
O=C1CC(c2ccncc2)C2(CCN(Cc3cccnc3)CC2)N1 (stereo not given),-12.35
COc1ccc(CNC(C)c2ccc(Cl)cc2)c(OC)c1OC (stereo not given),2.976 & 14.34
CN1CCCC2(CCN(Cc3cncn3C3CCCCC3)C2)C1=O (stereo not given),8.401
CC(Cc1cccc(F)c1)C(=O)NS(=O)(=O)c1cnn(C)c1 (stereo not given),3.238
O=C(O)CCNC(=O)N1CCc2c([nH]c3ccc(Cl)cc23)C1,-16.8
COc1cccc(-n2nnc(C(=O)N3CCN(C)CC3C)c2C)c1 (stereo not given),-15.1
O=C(c1cc(F)cc2[nH]cnc12)N1CCCC1Cn1cccn1 (stereo not given),16.75
Cc1cn(-c2ccccc2)nc1NS(=O)(=O)c1ccc(C(=O)O)cc1F,25.81
O=C(O)C(F)(F)F.O=C(O)C(F)(F)F.[H][C@@]12CCN(Cc3ccncc3)C[C@@]1([H])O[C@@H](C(=O)NC)C2,-10.71
Cc1nc(N(C)C)nc(-c2cccc(-c3ccn(CCCF)n3)c2)c1C,7.855
CN(C)C(=O)CN1CCC2(CCCN(Cc3cccn3C)C2)C1=O.O=C(O)C(F)(F)F (stereo not given),-33.21
O=C(CN1CCOc2ccccc2C1)NCc1cc2n(n1)CCNC2,-4.683
Cc1ccsc1CN1CC2(CCN(C(=O)C3CC3)CC2)CC1C(=O)O (stereo not given),-4.685
Cc1cccc(CN2CCc3c(COCC(=O)N(C)C)nn(C)c3C2)n1.O=C(O)C(F)(F)F.O=C(O)C(F)(F)F,1.501 & 2.175
COCC1CC2(CCN(c3cccc(C)n3)CC2)CN1c1ncccn1.O=C(O)C(F)(F)F (stereo not given),4.748
Cn1cc(-c2nnn3c2COC(CNCC2CCOCC2)C3)cn1 (stereo not given),-16.82
CN1CCOC(C)(C(=O)Nc2nccs2)C1 (stereo not given),-51.9 & -33.54
CCOC(=O)N1CCN(c2nc(NCCCO)c3ccccc3n2)CC1.Cl,-0.4999
[H][C@@]12C[C@@H](c3noc(C)n3)O[C@]1([H])CN(Cc1scnc1C)C2,-10.46 & 12.82
Cc1oc(-c2nc(C#N)c(N(C)C)o2)cc1S(=O)(=O)N1CCCC1,3.771
Cc1cnn(CC2CN(Cc3nc(-c4cccnc4)no3)CCO2)c1 (stereo not given),-32.54
c1cc(CNc2ccc(-c3nc(C4CC4)no3)cn2)no1,19.28
CC(=O)c1cccc(NC(=O)c2cnc(N3CCN(C)CC3)nc2C)c1,-2.174
O=C(O)C(F)(F)F.O=C(O)C(F)(F)F.c1ccc(CN2CCc3ncnc(C4CC4)c3CC2)nc1,0.05743
Cc1[nH]c2c(C)ccc(C)c2c1CC(=O)NC1CCCNC1=O (stereo not given),6.89
COc1ccccc1CNC(Cc1cccs1)c1nc(C)c(C)s1.Cl (stereo not given),-1.338
CN(C)C(=O)CNC(CC(F)(F)F)c1ccc(Cl)cc1 (stereo not given),17.44
CCC(C)N(CC)C(=O)c1ccc2[nH]nnc2c1 (stereo not given),-24.25 & -12.55
COc1ccc(C2CCCN2C(=O)NCCn2ccnc2)cc1 (stereo not given),-1.601
[H][C@]12CC[C@]([H])(CN(C(=O)Cc3c(C)nc(CC)[nH]c3=O)C1)N(CCC)C2,-3.299
CCOC(=O)Cn1ccc2cc(NC(=O)N3CCSCC3)ccc21,-8.426
CC(=O)N1CCC12CCN(Cc1ccco1)CC2.O=C(O)C(F)(F)F,0.784
CCOC(=O)N1CC(=O)N(Cc2ccc(OC)cc2)CC(O)C1 (stereo not given),-28.56
COc1cccc(CCCn2cnnc2[S+](C)[O-])c1 (stereo not given),-8.369
Cc1cc2c(cc1Cl)C=CC1(CCN(CC(=O)N3CCOCC3)CC1)O2,4.533 & -9.985
Cc1cc(C2CCCN(C(=O)COc3cc(F)ccc3F)C2)n[nH]1 (stereo not given),2.533
CC/C=C(/C)C(=O)NCCc1csc(N2CCCC2)n1,-6.961 & -3.487
COC(=O)C1Cc2nc[nH]c2CN1Cc1ccc(Sc2ncccn2)o1 (stereo not given),12.8
O=C(CN1CCOC(Cn2cccn2)C1)Nc1nccs1 (stereo not given),-11.34
O=C(O)Cn1ccc(=O)c2cc(F)ccc21,3.845
Cc1ccccc1-n1ncc(C(=O)N2CCCC2c2cnn(C)c2)c1C (stereo not given),-9.83
Cc1nc2c(c(=O)[nH]1)CCN(Cc1ccc3c(c1)CCCN3C)C2,2.992 & 17.8
CC(C)c1nc(C2CCCN2CCc2ccncc2)no1 (stereo not given),-9.146
Cn1cc(NC(=O)CNC(=O)N2CCN(c3cccc(Cl)c3)CC2)cn1,-4.685
Cc1cc(C)n(CCNCc2cc(-c3ccc(Cl)cc3)c[nH]c2=O)n1,13.2 & 1.305
O=C(O)[C@@H]1CN(C(=O)c2ccc(Cl)cc2)C[C@H]1c1cccc(F)c1,-2.271
O=C(c1ccco1)N1CCOCC2(C1)CN(c1ccccc1)C(=O)CO2 (stereo not given),-6.343
CC(C)(C)C(=O)NCCC(=O)NC(C)(C)c1ccc2c(c1)OCCO2,-11.91
c1cc(C2CCN(c3cncnc3)CC2)ccn1,5.146 & -2.455
CCOc1ccccc1C(=O)NCCc1ccoc1,-12.6
[H][C@@]12CS(=O)(=O)C[C@]1([H])N(C(=O)CN(C)CC)CCN2Cc1ccccc1,4.522
CC1CCN(C)c2ccccc2N1C(=O)c1ccn(C)c(=O)c1 (stereo not given),5.283
[H][C@@]12CS(=O)(=O)C[C@]1([H])N(C(=O)c1[nH]c3ccccc3c1CC)CCN2C,8.898
Cc1nc2n(n1)CC(NCc1nnc(C(C)(C)C)o1)CC2 (stereo not given),0.814
COc1ccc(Cl)cc1C(=O)NCC1CCN(C(=O)c2ccoc2)CC1,0.8381
c1ccc(CCCN2CC[C@H](c3nnc(-c4ccccc4)o3)C2)cc1,12.7
Cc1cnc(N2CCC3(CC(=O)N(Cc4csc(C)n4)C3)C2)nc1.O=C(O)C(F)(F)F (stereo not given),-14.3
CC1COCCN1Cc1nc(-c2cccs2)no1 (stereo not given),-30.42
CC(C(=O)NCc1ccc2c(c1)OCCO2)n1cncn1 (stereo not given),-38.53
CN(Cc1ccc(OC(F)F)cc1)C(=O)CS(=O)(=O)c1ccc(Cl)cc1,22.73
Oc1cc(C2CCCCN2Cc2ccsc2)nc(-c2ccncc2)n1 (stereo not given),-2.719
c1cc(-c2nc3c(c(NCCn4ccnn4)n2)CCNCC3)ccn1,-3.225
Cc1ccc(CCCC(=O)N2CCC(CS(N)(=O)=O)CC2)s1,-14.8
NS(=O)(=O)CCNC(=O)c1ccc(-c2ccc(F)cc2)cc1F,-18.5
O=C(c1cc(-c2ccc(O)cc2)n[nH]1)N1CCCC1c1cccnc1 (stereo not given),25.47
COc1ccc(N2CCN(C(=O)Cn3nc(C)c(Cl)c3C)CC2)cc1,1.972
COc1ccccc1-c1nc(C(=O)N2CCOCC2)n2ccncc12,2.865
CC(CNC(=O)c1cccc(C#N)c1)N1CCc2ccccc21 (stereo not given),-3.846
CCN(Cc1cnn(CC)c1)C(=O)CN1C(=O)CCc2ccccc21,-2.058
O=C(CCS(=O)(=O)c1ccccc1)NCCCn1cccn1,8.708
CCN1CCC(CNC(=O)C(c2ccccc2F)N(C)C)(N(C)C)CC1 (stereo not given),4.47
O=C(O)C(F)(F)F.[H][C@@]12CCC(=O)N(CCOC)[C@]1([H])CCN2Cc1ccc(C)s1,-24.62
Cc1cc(C)n(CC2CCCN2C(=O)Cc2c(C)nn(C)c2C)n1 (stereo not given),-16.2
O=C(NCCc1cccs1)N1CCCC1CCCO (stereo not given),8.099
Cc1ccc(CN2CCOCS2(=O)=O)cc1F,12.39
O=C(O)[C@H]1CN(Cc2ccccc2)C[C@@H]1C(=O)c1ccccc1,-17.57 & -16.49
COCCn1ccc2c(C(=O)O)cccc21,-1.828
CC(C1CCN(Cc2c(Cl)cncc2Cl)CC1)N1CCN(C)CC1 (stereo not given),-7.608 & 0.4828

8 of the entries, repeated:

compound,effect
Oc1cc(C2CCCCN2Cc2ccsc2)nc(-c2ccncc2)n1 (stereo not given),-2.719
Cc1nc2c(c(=O)[nH]1)CCN(Cc1ccc3c(c1)CCCN3C)C2,2.992 & 17.8
CC(C)(C)C(=O)NCCC(=O)NC(C)(C)c1ccc2c(c1)OCCO2,-11.91
COc1ccc(CNC(C)c2ccc(Cl)cc2)c(OC)c1OC (stereo not given),2.976 & 14.34
O=C(O)C(F)(F)F.[H][C@@]12CCC(=O)N(CCOC)[C@]1([H])CCN2Cc1ccc(C)s1,-24.62
Cc1cc2c(cc1Cl)C=CC1(CCN(CC(=O)N3CCOCC3)CC1)O2,4.533 & -9.985
Cc1cc(C)n(CCNCc2cc(-c3ccc(Cl)cc3)c[nH]c2=O)n1,13.2 & 1.305
Cc1cc(C2CCCN(C(=O)COc3cc(F)ccc3F)C2)n[nH]1 (stereo not given),2.533